Where a sequence shows no end group, the ends are not given.
Assay: general procedure: Fmoc solid-phase peptide synthesis; Wang resin (aapptec), 0.55 mmol g^-1; DIC/HOBt
Conditions: whole synthesis, 220 nm

For DRVYHIPF, the “final HPLC purity” value was 98%.
